Values are relative to the signal before dosing, not to a vehicle control; the signal also falls without drug.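 Fibroblast labels denote human fibroblasts, mainly primary ones from uterus (C12385, HUF), lung (H6013), bone (Hs27A), adrenal (HADF) and skin (WS1), plus mammary HMF and breast cancer-associated Hs343T. Cancer cells are basal-like or mesenchymal-like triple-negative breast cancer lines. A hit is a response shift exceeding 3x replicate standard deviation. The tissue of the other fibroblasts is not given here.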
System: Hs578T
Assay: relative JC-1 red fluorescence (viability) vs pre-drug, coculture with fibroblast (fraction); higher = more viable cancer cells
Method: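 JC-1 labelled TNBC cells cocultured 1:1 (1,500 cells each) with CellTrace Violet stained primary or stromal fibroblasts in 384-well plates in FluoroBrite medium, treated with one of 42 anticancer drugs at 0.1, 1, 10 or 100 uM. JC-1 red fluorescence (mitochondrial integrity in cancer cells only) was read by plate reader every 8 h for 72 h. Values are normalised to each well's pre-drug value. The stock of one drug was tenfold lower, so its dose labels may be too high.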

Nc1ccn([C@@H]2O[C@H](CO)[C@@H](O)C2(F)F)c(=O)n1 [Gemcitabine]
relative JC-1 red fluorescence
Conditions | 8 h | 16 h | 24 h | 32 h | 40 h | 48 h | 56 h | 64 h | 72 h
0.1 µM | 0.88681 | 0.759 | 0.698 | 0.66 | 0.591 | 0.551 | 0.534 | 0.503 | 0.509
1 µM | 0.88 | 0.741 | 0.681 | 0.647 | 0.59 | 0.553 | 0.55 | 0.521 | 0.519
10 µM | 0.9015 | 0.775 | 0.716 | 0.681 | 0.616 | 0.582 | 0.561 | 0.525 | 0.5204
100 µM | 0.926 | 0.801 | 0.737 | 0.688 | 0.628 | 0.586 | 0.573 | 0.546 | 0.542

relative JC-1 red fluorescence
Conditions | 8 h | 16 h | 24 h | 32 h | 40 h | 48 h | 56 h | 64 h | 72 h
0.1 µM, coculture fibroblast: C12385 | 0.8296 | 0.6902 | 0.636 | 0.547 | 0.4819 | 0.4446 | 0.415 | 0.409 | 0.409
0.1 µM, coculture fibroblast: H6013 | 0.8941 | 0.79 | 0.749 | 0.728 | 0.689 | 0.682 | 0.669 | 0.668 | 0.646
0.1 µM, coculture fibroblast: H6019 | 0.791 | 0.666 | 0.646 | 0.5372 | 0.493 | 0.46 | 0.434 | 0.415 | 0.401
0.1 µM, coculture fibroblast: H6076 | 0.9222 | 0.827 | 0.7593 | 0.724 | 0.664 | 0.64 | 0.601 | 0.584 | 0.574
0.1 µM, coculture fibroblast: H6231 | 0.9089 | 0.8362 | 0.73 | 0.688 | 0.615 | 0.583 | 0.526 | 0.5 | 0.477
0.1 µM, coculture fibroblast: HADF | 0.899 | 0.793 | 0.726 | 0.68 | 0.642 | 0.621 | 0.59 | 0.588 | 0.568
0.1 µM, coculture fibroblast: HCFa | 0.9216 | 0.8433 | 0.794 | 0.763 | 0.7073 | 0.6953 | 0.6683 | 0.646 | 0.612
0.1 µM, coculture fibroblast: HCPF | 0.927 | 0.821 | 0.763 | 0.722 | 0.653 | 0.624 | 0.588 | 0.549 | 0.519
0.1 µM, coculture fibroblast: HHSteC | 0.952 | 0.838 | 0.803 | 0.755 | 0.694 | 0.662 | 0.619 | 0.601 | 0.559
0.1 µM, coculture fibroblast: HMF | 0.881 | 0.773 | 0.717 | 0.695 | 0.625 | 0.591 | 0.554 | 0.532 | 0.517
0.1 µM, coculture fibroblast: HPFa | 0.9173 | 0.818 | 0.732 | 0.673 | 0.615 | 0.575 | 0.541 | 0.526 | 0.486
0.1 µM, coculture fibroblast: HUF | 0.87 | 0.761 | 0.669 | 0.559 | 0.48 | 0.434 | 0.393 | 0.381 | 0.371
0.1 µM, coculture fibroblast: Hs27A | 0.883 | 0.801 | 0.72 | 0.655 | 0.603 | 0.582 | 0.548 | 0.537 | 0.507
0.1 µM, coculture fibroblast: Hs343T | 0.953 | 0.821 | 0.759 | 0.731 | 0.654 | 0.623 | 0.567 | 0.541 | 0.529
0.1 µM, coculture fibroblast: WS1 | 0.809 | 0.67 | 0.607 | 0.504 | 0.444 | 0.427 | 0.396 | 0.3995 | 0.401
1 µM, coculture fibroblast: C12385 | 0.831 | 0.695 | 0.662 | 0.56 | 0.504 | 0.4799 | 0.4554 | 0.4632 | 0.4662
1 µM, coculture fibroblast: H6013 | 0.859 | 0.7938 | 0.7489 | 0.706 | 0.6509 | 0.6326 | 0.6032 | 0.5954 | 0.5767
1 µM, coculture fibroblast: H6019 | 0.7621 | 0.642 | 0.609 | 0.5 | 0.449 | 0.419 | 0.384 | 0.37 | 0.346
1 µM, coculture fibroblast: H6076 | 0.909 | 0.7709 | 0.739 | 0.717 | 0.657 | 0.634 | 0.604 | 0.591 | 0.587
1 µM, coculture fibroblast: H6231 | 0.923 | 0.842 | 0.742 | 0.704 | 0.628 | 0.587 | 0.5433 | 0.5109 | 0.4939
1 µM, coculture fibroblast: HADF | 0.88 | 0.774 | 0.727 | 0.68 | 0.632 | 0.603 | 0.562 | 0.549 | 0.518
1 µM, coculture fibroblast: HCFa | 0.864 | 0.818 | 0.764 | 0.707 | 0.649 | 0.626 | 0.589 | 0.5733 | 0.5376
1 µM, coculture fibroblast: HCPF | 0.8838 | 0.7861 | 0.751 | 0.717 | 0.655 | 0.625 | 0.606 | 0.563 | 0.542
1 µM, coculture fibroblast: HHSteC | 0.897 | 0.799 | 0.746 | 0.697 | 0.637 | 0.605 | 0.575 | 0.545 | 0.515
1 µM, coculture fibroblast: HMF | 0.895 | 0.783 | 0.74 | 0.716 | 0.663 | 0.625 | 0.593 | 0.566 | 0.546
1 µM, coculture fibroblast: HPFa | 0.929 | 0.817 | 0.748 | 0.69 | 0.639 | 0.604 | 0.559 | 0.54 | 0.504
1 µM, coculture fibroblast: HUF | 0.867 | 0.727 | 0.678 | 0.566 | 0.51 | 0.463 | 0.432 | 0.424 | 0.419
1 µM, coculture fibroblast: Hs27A | 0.865 | 0.806 | 0.775 | 0.756 | 0.708 | 0.7089 | 0.6792 | 0.683 | 0.651
1 µM, coculture fibroblast: Hs343T | 0.904 | 0.765 | 0.7136 | 0.6905 | 0.615 | 0.577 | 0.539 | 0.51 | 0.5
1 µM, coculture fibroblast: WS1 | 0.7826 | 0.685 | 0.626 | 0.523 | 0.463 | 0.4422 | 0.416 | 0.416 | 0.4182
10 µM, coculture fibroblast: C12385 | 0.829 | 0.691 | 0.612 | 0.54 | 0.47 | 0.422 | 0.383 | 0.353 | 0.337
10 µM, coculture fibroblast: H6013 | 0.925 | 0.841 | 0.8161 | 0.7936 | 0.757 | 0.75 | 0.733 | 0.743 | 0.721
10 µM, coculture fibroblast: H6019 | 0.777 | 0.687 | 0.632 | 0.54 | 0.489 | 0.457 | 0.425 | 0.409 | 0.396
10 µM, coculture fibroblast: H6076 | 0.91 | 0.8409 | 0.771 | 0.745 | 0.694 | 0.679 | 0.638 | 0.623 | 0.618
10 µM, coculture fibroblast: H6231 | 0.917 | 0.816 | 0.749 | 0.7 | 0.627 | 0.596 | 0.543 | 0.513 | 0.4882
10 µM, coculture fibroblast: HADF | 0.9006 | 0.805 | 0.747 | 0.707 | 0.667 | 0.637 | 0.6 | 0.584 | 0.555
10 µM, coculture fibroblast: HCFa | 0.876 | 0.764 | 0.691 | 0.634 | 0.564 | 0.541 | 0.512 | 0.5 | 0.476
10 µM, coculture fibroblast: HCPF | 0.937 | 0.829 | 0.778 | 0.745 | 0.68 | 0.655 | 0.623 | 0.574 | 0.542
10 µM, coculture fibroblast: HHSteC | 0.909 | 0.793 | 0.749 | 0.706 | 0.658 | 0.628 | 0.603 | 0.577 | 0.551
10 µM, coculture fibroblast: HMF | 0.898 | 0.796 | 0.7247 | 0.6958 | 0.6319 | 0.5982 | 0.5625 | 0.5323 | 0.5065
10 µM, coculture fibroblast: HPFa | 0.9094 | 0.803 | 0.722 | 0.639 | 0.577 | 0.537 | 0.489 | 0.468 | 0.425
10 µM, coculture fibroblast: HUF | 0.895 | 0.746 | 0.722 | 0.6274 | 0.562 | 0.523 | 0.491 | 0.485 | 0.472
10 µM, coculture fibroblast: Hs27A | 0.909 | 0.843 | 0.795 | 0.7499 | 0.7052 | 0.6915 | 0.657 | 0.648 | 0.604
10 µM, coculture fibroblast: Hs343T | 0.9325 | 0.802 | 0.716 | 0.677 | 0.591 | 0.549 | 0.491 | 0.458 | 0.436
10 µM, coculture fibroblast: WS1 | 0.8169 | 0.687 | 0.598 | 0.498 | 0.43 | 0.398 | 0.357 | 0.333 | 0.317
100 µM, coculture fibroblast: C12385 | 0.827 | 0.718 | 0.685 | 0.599 | 0.543 | 0.51 | 0.487 | 0.472 | 0.458
100 µM, coculture fibroblast: H6013 | 0.892 | 0.781 | 0.739 | 0.691 | 0.625 | 0.596 | 0.557 | 0.546 | 0.53
100 µM, coculture fibroblast: H6019 | 0.769 | 0.652 | 0.601 | 0.503 | 0.454 | 0.427 | 0.405 | 0.401 | 0.392
100 µM, coculture fibroblast: H6076 | 0.908 | 0.811 | 0.78 | 0.76 | 0.71 | 0.695 | 0.679 | 0.659 | 0.658
100 µM, coculture fibroblast: H6231 | 0.91 | 0.835 | 0.767 | 0.727 | 0.654 | 0.622 | 0.572 | 0.543 | 0.532
100 µM, coculture fibroblast: HADF | 0.9004 | 0.812 | 0.742 | 0.69 | 0.626 | 0.593 | 0.552 | 0.534 | 0.497
100 µM, coculture fibroblast: HCFa | 0.884 | 0.807 | 0.8 | 0.757 | 0.71 | 0.696 | 0.674 | 0.674 | 0.647
100 µM, coculture fibroblast: HCPF | 0.926 | 0.842 | 0.788 | 0.762 | 0.689 | 0.66 | 0.63 | 0.57855 | 0.5509
100 µM, coculture fibroblast: HHSteC | 0.917 | 0.783 | 0.707 | 0.644 | 0.572 | 0.527 | 0.497 | 0.47 | 0.43
100 µM, coculture fibroblast: HMF | 0.9154 | 0.82 | 0.774 | 0.754 | 0.692 | 0.665 | 0.622 | 0.593 | 0.563
100 µM, coculture fibroblast: HPFa | 0.948 | 0.8611 | 0.7898 | 0.739 | 0.693 | 0.662 | 0.625 | 0.603 | 0.574
100 µM, coculture fibroblast: HUF | 0.853 | 0.735 | 0.685 | 0.575 | 0.517 | 0.477 | 0.444 | 0.427 | 0.424
100 µM, coculture fibroblast: Hs27A | 0.882 | 0.83 | 0.753 | 0.704 | 0.634 | 0.609 | 0.567 | 0.548 | 0.502
100 µM, coculture fibroblast: Hs343T | 0.925 | 0.798 | 0.768 | 0.749 | 0.685 | 0.656 | 0.612 | 0.581 | 0.567
100 µM, coculture fibroblast: WS1 | 0.814 | 0.706 | 0.641 | 0.54 | 0.475 | 0.45463 | 0.4219 | 0.4133 | 0.403
